Assay results from PubChem BioAssay AID588590 (National Center for Advancing Translational Sciences (NCATS), 2011).
Where “and” joins values, the source holds several entries; their conditions need not be identical. Equal values may be shown once. In all, about 390,000 compounds went through this assay and about 4,000 (1%) were called active. This list was built around the results that the source calls inconclusive (neither active nor inactive); the mix of calls is not that of the screen. The call rests on the fitted dose curve; in most records, active means well fitted inhibition curve with a large enough effect; inconclusive means small, poorly fitted or top-dose-only effect, or another doubt; inactive means no such curve, though single readings can be large or run the other way. A potency beside an inconclusive call is a rough fit, not a confirmed value.

Amino acid sequences for entries named in this document (tags omitted). A change or cut given only in a name is not applied to a line headed by its entry.
UniProt Q9UNA4: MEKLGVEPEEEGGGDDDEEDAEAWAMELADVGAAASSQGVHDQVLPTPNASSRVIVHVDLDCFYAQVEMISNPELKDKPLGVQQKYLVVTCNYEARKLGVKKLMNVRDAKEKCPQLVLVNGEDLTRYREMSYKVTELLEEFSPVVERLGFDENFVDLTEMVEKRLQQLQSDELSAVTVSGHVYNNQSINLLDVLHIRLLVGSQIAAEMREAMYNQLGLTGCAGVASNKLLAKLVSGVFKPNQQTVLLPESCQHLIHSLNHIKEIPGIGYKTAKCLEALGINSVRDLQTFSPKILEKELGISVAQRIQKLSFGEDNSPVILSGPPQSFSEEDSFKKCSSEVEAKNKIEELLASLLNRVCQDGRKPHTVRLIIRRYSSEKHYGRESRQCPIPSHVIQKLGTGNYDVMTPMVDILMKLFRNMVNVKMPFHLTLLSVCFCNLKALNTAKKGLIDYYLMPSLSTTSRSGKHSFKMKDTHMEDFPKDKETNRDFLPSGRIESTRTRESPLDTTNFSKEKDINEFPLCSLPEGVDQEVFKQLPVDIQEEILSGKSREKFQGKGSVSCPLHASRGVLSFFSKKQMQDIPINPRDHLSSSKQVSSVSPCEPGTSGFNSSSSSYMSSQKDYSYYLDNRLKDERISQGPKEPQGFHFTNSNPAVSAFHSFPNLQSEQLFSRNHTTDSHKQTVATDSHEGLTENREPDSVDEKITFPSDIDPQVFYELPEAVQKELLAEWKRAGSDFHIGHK

The molecules below were run against DNA polymerase iota (Homo sapiens) (UniProt Q9UNA4) (assay: qHTS for Inhibitors of Polymerase Iota). Details: Pol iota fluorescent replication assay, 10 min; series mostly up to 115 µM.
Method in brief: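 Fluorescent replication assay read twice, at 0 min and 10 min after adding 50 nM (final) substrate. Enzyme (10 nM) and compounds were first incubated 15 min at room temperature; enzyme-free buffer wells were negative controls.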
Potency means the concentration at half of the fitted maximal effect.

Row | SMILES | Potency
1 | O=C(CNC(=O)c1ccccc1)OCc1cc(=O)n2cc(Br)ccc2n1 | inconclusive: 39.8 µM [inhibitor, partial curve, poor fit]
2 | CCN(c1ccccc1)S(=O)(=O)c1nnc(NC(=O)c2ccccc2OC)s1 | inconclusive: 39.8 µM [inhibitor, single point]
3 | CCC(C)[C@H]1CNCCN1CCc1cccc(F)c1 (stereo partly drawn) | inconclusive: 3.55 µM [inhibitor, full curve, poor fit]
4 | CCc1cccc(C)c1NC(=O)CN1CCN(S(=O)(=O)c2ccc(C(C)(C)C)cc2)CC1 | inactive
5 | CCN(CC)CCN(Cc1cc2cc3c(cc2[nH]c1=O)OCCO3)C(=S)NC | inconclusive: 7.08 µM [inhibitor, partial curve, poor fit]
6 | CCOC(=O)C1=C(C)N=c2s/c(=C\c3ccc(O)c([N+](=O)[O-])c3)c(=O)n2C1c1ccccc1OC (stereo not drawn) | inconclusive: 28.2 µM [inhibitor, partial curve, poor fit]
7 | Clc1cc(Cl)cc(CN2CCSCC2)c1 | inactive
8 | Fc1ccc(Nc2ncnc3sc4c(c23)CCC4)cc1 | inconclusive: 28.2 µM [inhibitor, single point]
9 | Cc1cc(C)c2c(NC(=O)CCl)nn(C)c2n1 | inconclusive: 44.7 µM [inhibitor, partial curve, poor fit]
10 | CC(Sc1nc(-c2ccccc2)cc(C(F)(F)F)n1)C(=O)N1CCC(C(N)=O)CC1 (stereo not drawn) | inconclusive: 89.1 µM [inhibitor, single point]
11 | C=CCn1c(=O)c2ccc(C(=O)NCc3ccccc3)cc2n(Cc2ccc(Cl)cc2)c1=O | inconclusive: 112 µM [inhibitor, partial curve, poor fit]
12 | NC(=S)N/N=C/c1coc2c(ccc3ccccc32)c1=O | inconclusive: 89.1 µM [inhibitor, partial curve, poor fit]
13 | Cn1ncc(C#N)c1/N=C/N1CCCC1 | inactive
14 | COCCCNC(=O)Cn1c(=O)n(CC(=O)N2CCCCC2)c(=O)c2sccc21 | inactive
15 | O=C(NCc1ccc2c(c1)OCO2)c1c(O)nc2sccn2c1=O | inconclusive: 89.1 µM [inhibitor, single point]
16 | Cc1nc(N=Nc2cc(S(=O)(=O)O)c3cc([N+](=O)[O-])cc(S(=O)(=O)O)c3c2)c(COP(=O)(O)O)c(C=O)c1O | active: 50.1 µM and active: 5.01 µM
17 | COCCSc1ccccc1C(=O)NCCCn1ccnc1 | inconclusive: 89.1 µM [inhibitor, partial curve, poor fit]
18 | O=C(c1nnsc1S(=O)c1ccc(Cl)cc1)N1CCOCC1 (stereo not drawn) | inconclusive: 15.8 µM [inhibitor, partial curve, poor fit]

Retrieved by compound from the list above:
Row | SMILES | Potency
18 | O=C(c1nnsc1S(=O)c1ccc(Cl)cc1)N1CCOCC1 (stereo not drawn) | inconclusive: 15.8 µM [inhibitor, partial curve, poor fit]
5 | CCN(CC)CCN(Cc1cc2cc3c(cc2[nH]c1=O)OCCO3)C(=S)NC | inconclusive: 7.08 µM [inhibitor, partial curve, poor fit]
